Literature values in patent publication US5712265A (The General Hospital Corporation, priority 1995, dated 1998).

Conditions: 3.0 and 6.0 μg/kg intramuscularly; cited from earlier work

CN1[C@@H]2C[C@@H](OC(=O)[C@H](CO)c3ccccc3)C[C@H]1[C@@H]1O[C@@H]12 [scopolamine]
nocturnal plasma cortisol concentrations: did not affect
